Experimental data taken from PMC12011380.
These are yes or no findings as the source states them, for the method shown. In cells and extracts the contact can be indirect. Some entries that bind do so weakly or less than the wild type.

Chains of the proteins cited; added tags and fusions are not shown.
UniProt Q9BXW9: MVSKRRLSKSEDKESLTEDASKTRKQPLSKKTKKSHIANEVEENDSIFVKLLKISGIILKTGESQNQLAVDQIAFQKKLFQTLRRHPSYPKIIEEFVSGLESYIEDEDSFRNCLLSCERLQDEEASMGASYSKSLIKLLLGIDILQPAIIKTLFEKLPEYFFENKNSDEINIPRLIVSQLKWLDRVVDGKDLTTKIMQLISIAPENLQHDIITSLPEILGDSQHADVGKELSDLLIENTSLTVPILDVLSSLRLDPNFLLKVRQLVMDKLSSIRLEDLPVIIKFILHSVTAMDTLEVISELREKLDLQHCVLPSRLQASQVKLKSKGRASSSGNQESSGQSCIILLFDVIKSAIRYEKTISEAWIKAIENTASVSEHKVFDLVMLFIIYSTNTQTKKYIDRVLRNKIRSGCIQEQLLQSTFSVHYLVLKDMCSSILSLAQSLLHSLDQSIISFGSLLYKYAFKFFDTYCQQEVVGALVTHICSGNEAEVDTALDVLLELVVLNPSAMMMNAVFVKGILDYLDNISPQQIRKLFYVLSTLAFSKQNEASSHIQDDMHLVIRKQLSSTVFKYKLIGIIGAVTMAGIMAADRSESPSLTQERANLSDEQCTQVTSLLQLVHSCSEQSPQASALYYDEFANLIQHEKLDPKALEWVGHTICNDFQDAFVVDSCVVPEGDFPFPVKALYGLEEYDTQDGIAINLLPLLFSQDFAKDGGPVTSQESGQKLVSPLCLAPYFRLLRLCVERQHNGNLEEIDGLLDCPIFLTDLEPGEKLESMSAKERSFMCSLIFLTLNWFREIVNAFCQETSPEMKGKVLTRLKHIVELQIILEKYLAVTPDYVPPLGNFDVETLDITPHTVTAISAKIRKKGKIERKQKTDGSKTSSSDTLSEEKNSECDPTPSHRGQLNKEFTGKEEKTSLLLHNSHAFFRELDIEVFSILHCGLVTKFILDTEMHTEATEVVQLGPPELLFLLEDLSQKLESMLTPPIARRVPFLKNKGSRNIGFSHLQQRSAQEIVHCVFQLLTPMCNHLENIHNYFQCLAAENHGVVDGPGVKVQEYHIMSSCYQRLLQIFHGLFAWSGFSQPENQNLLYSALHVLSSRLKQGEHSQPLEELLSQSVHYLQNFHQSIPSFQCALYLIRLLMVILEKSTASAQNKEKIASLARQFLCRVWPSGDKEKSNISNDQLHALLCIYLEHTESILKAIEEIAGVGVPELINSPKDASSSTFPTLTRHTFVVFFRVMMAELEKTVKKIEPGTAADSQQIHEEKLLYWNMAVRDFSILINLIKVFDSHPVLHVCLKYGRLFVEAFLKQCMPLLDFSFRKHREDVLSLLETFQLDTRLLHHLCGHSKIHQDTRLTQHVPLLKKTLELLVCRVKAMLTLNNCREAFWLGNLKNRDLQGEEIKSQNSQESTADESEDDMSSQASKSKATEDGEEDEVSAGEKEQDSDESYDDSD
UniProt P53350: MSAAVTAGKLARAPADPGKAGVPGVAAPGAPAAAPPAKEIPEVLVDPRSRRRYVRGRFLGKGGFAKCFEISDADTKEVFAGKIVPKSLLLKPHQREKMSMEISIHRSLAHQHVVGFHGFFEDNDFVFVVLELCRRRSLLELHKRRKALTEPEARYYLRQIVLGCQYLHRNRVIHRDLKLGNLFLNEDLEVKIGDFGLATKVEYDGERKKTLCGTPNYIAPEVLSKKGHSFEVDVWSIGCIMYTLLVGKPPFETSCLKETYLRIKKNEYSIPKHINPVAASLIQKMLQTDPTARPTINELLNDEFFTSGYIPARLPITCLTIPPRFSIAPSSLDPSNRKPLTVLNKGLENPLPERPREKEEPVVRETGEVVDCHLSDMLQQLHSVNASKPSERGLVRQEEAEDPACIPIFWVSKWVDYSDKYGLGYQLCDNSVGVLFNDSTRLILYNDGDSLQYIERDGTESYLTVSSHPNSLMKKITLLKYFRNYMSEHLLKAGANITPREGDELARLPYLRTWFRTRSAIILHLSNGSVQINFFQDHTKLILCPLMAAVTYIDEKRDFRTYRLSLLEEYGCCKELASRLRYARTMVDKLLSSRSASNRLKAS

Columns and labels:
[1] = molecular target: T1, FANCA (human (endogenous in HeLa)) (UniProt O15360); test: proximity ligation; Duolink PLA with immunofluorescence in fixed mitotic HeLa cells stably expressing GFP-CENPA; signal at centromeres; FANCD2-PLK1 also after volasertib treatment
T1 sequence: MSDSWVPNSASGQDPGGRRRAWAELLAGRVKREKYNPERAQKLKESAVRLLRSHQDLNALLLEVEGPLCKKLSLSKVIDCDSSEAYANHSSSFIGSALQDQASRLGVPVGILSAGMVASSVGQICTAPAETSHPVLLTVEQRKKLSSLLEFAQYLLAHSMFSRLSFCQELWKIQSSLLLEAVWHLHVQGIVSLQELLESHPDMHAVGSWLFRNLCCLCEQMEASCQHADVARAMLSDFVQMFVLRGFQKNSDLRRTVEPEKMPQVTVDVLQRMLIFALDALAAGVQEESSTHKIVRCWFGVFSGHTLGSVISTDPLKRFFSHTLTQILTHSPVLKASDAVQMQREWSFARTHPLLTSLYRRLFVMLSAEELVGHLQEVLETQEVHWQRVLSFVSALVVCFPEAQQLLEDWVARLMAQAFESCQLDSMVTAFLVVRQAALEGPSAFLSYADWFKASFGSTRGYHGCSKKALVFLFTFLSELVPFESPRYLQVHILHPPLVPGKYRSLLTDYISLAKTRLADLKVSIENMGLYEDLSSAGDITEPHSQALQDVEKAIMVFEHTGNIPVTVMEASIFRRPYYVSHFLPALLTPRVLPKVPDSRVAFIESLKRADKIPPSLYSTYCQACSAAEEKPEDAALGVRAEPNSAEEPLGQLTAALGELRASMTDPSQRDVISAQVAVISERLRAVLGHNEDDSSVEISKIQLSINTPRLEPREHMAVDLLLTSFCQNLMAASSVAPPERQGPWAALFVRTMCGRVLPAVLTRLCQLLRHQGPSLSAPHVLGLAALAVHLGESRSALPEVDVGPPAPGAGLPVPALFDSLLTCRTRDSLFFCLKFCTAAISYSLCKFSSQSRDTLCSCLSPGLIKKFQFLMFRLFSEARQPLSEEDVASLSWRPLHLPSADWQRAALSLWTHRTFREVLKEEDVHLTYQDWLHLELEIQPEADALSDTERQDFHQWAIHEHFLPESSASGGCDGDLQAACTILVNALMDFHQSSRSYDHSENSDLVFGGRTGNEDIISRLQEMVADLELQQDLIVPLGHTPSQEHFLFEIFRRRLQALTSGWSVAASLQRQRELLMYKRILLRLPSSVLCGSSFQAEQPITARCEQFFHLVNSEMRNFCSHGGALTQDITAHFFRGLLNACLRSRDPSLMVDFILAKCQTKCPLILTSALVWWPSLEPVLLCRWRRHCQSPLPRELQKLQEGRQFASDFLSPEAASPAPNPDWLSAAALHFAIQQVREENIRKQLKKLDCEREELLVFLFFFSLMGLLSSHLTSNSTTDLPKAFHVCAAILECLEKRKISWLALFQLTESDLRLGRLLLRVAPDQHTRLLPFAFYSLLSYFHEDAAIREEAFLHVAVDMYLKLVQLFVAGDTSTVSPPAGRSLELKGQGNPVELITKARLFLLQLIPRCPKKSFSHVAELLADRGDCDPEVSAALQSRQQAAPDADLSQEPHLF

[2] = molecular target: FANCD2 (human (endogenous in HeLa)) (UniProt Q9BXW9); test: as above
[3] = molecular target: T1, FANCA (human (endogenous in HeLa)); test: co-IP; endogenous FANCA or FANCD2 immunoprecipitated from precleared HeLa lysates (antibody overnight at 4°C, protein A/G magnetic beads), Western blot for PLK1; FANCA-IP from cells unsynchronized, MMC-treated, or arrested with nocodazole or taxol; FANCD2-IP from nocodazole-arrested cells without or with volasertib (20 nmol/L)
[4] = molecular target: FANCD2 (human (endogenous in HeLa)) (UniProt Q9BXW9); test: as above

Measured: binding

polo-like kinase 1 (from UniProt P53350 1-603)
binds: [1] | [2] | [3] | [4]
